Positions count from the first letter of the chain named. Numbers in names are those of the source. Results are given in words; binding and its absence hold for the method and conditions named. For some of these results: Binding seen in cells or lysates may run through a third protein. Some binding calls cover weakened binding; strength is not graded here. For some of these results: Tags and fused reporters may be left off the sequences shown. Blank lines part the entries; values can stand above or below the binder they belong to.
What was measured:
[1] = biological target: full length Rad53 (yeast two-hybrid) (S. cerevisiae) (UniProt P22216); experiment: two-hybrid; yeast two-hybrid in L40 diploid strain with bait and prey plasmids; growth on selective -L-T-H against non-selective -L-T plates, 3 days
[2] = biological target: internally tagged Rad53-6HA (S. cerevisiae) (UniProt P22216); experiment: co-IP; anti-HA immunoprecipitation of internally tagged Rad53-6HA from yeast strains with POL1-13myc, arrested in 200 mM HU or released from G1 into S-phase with or without HU
[3] = biological target: Rad53-FP (S. cerevisiae) (UniProt P22216); experiment: split reporter; BiFC with split YFP in living yeast: Y-Pol1 and Rad53-FP; cells released from G1 into 200 mM HU for 60 minutes or into S-phase without HU; nuclear fluorescence by confocal microscopy
[4] = biological target: T1, Pol12, full length (yeast two-hybrid) (S. cerevisiae) (UniProt P38121); experiment: two-hybrid; yeast two-hybrid in L40 diploid strain with bait and prey plasmids; growth on selective -L-T-H against non-selective -L-T plates, 3 days
T1 sequence: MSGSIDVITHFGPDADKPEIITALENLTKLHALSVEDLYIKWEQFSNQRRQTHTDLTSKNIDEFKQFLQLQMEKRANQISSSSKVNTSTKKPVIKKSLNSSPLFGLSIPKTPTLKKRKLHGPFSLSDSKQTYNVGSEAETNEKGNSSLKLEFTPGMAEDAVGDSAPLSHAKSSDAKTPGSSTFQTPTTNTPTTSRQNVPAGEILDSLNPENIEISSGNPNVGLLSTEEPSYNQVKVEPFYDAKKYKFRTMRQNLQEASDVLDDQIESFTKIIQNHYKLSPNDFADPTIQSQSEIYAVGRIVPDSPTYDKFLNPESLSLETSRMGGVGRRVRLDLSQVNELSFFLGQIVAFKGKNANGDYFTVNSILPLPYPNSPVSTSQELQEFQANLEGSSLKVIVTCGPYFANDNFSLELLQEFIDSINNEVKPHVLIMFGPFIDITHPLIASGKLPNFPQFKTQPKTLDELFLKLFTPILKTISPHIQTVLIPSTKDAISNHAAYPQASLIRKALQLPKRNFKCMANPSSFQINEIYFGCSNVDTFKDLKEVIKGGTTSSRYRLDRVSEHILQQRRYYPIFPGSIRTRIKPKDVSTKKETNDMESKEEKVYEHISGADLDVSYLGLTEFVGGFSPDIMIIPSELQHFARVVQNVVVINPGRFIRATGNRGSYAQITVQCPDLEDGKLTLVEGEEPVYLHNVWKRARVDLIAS

Amino acid sequences for entries named in this document (tags omitted). A change or cut given only in a name is not applied to a line headed by its entry. Residues count along the entry.
UniProt P22216: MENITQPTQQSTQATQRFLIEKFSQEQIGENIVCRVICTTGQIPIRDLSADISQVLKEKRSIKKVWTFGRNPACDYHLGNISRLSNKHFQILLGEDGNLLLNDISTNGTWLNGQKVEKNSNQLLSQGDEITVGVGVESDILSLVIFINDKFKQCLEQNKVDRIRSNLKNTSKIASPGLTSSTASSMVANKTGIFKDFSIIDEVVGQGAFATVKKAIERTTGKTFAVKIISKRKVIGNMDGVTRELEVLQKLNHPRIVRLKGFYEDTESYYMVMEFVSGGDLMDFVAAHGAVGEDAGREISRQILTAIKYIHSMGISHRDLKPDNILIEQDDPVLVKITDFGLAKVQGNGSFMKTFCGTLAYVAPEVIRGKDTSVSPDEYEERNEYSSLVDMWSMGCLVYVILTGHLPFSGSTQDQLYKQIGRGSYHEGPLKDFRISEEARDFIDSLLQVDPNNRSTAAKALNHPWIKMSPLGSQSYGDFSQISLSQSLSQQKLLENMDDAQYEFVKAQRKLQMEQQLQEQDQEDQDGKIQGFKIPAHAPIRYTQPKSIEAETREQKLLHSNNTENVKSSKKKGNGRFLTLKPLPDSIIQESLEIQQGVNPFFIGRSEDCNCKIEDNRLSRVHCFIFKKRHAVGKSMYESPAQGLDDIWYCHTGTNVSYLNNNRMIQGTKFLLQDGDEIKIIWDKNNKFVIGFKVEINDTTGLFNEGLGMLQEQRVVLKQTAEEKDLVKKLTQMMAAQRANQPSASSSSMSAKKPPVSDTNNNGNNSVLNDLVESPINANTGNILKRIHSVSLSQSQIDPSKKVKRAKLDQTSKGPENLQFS
Rad53 FHA1 domain (1-165) (yeast two-hybrid): residues 1-165 of P22216

[5] = biological target: Rad53 FHA1 domain (1-165) (yeast two-hybrid) (S. cerevisiae) (UniProt P22216); experiment: as above

binding [1]: no binding
B1: Pol12, full length (yeast two-hybrid) (protein, UniProt P38121 1-705)
chain: T1 sequence

binding [2]: binds
B2: Pol1-13myc (protein, UniProt P13382 1-1468)
chain: MSSKSEKLEKLRKLQAARNGTSIDDYEGDESDGDRIYDEIDEKEYRARKRQELLHDDFVVDDDGVGYVDRGVEEDWREVDNSSSDEDTGNLASKDSKRKKNIKREKDHQITDMLRTQHSKSTLLAHAKKSQKKSIPIDNFDDILGEFESGEVEKPNILLPSKLRENLNSSPTSEFKSSIKRVNGNDESSHDAGISKKVKIDPDSSTDKYLEIESSPLKLQSRKLRYANDVQDLLDDVENSPVVATKRQNVLQDTLLANPPSAQSLADEEDDEDSDEDIILKRRTMRSVTTTRRVNIDSRSNPSTSPFVTAPGTPIGIKGLTPSKSLQSNTDVATLAVNVKKEDVVDPETDTFQMFWLDYCEVNNTLILFGKVKLKDDNCVSAMVQINGLCRELFFLPREGKTPTDIHEEIIPLLMDKYGLDNIRAKPQKMKYSFELPDIPSESDYLKVLLPYQTPKSSRDTIPSDLSSDTFYHVFGGNSNIFESFVIQNRIMGPCWLDIKGADFNSIRNASHCAVEVSVDKPQNITPTTTKTMPNLRCLSLSIQTLMNPKENKQEIVSITLSAYRNISLDSPIPENIKPDDLCTLVRPPQSTSFPLGLAALAKQKLPGRVRLFNNEKAMLSCFCAMLKVEDPDVIIGHRLQNVYLDVLAHRMHDLNIPTFSSIGRRLRRTWPEKFGRGNSNMNHFFISDICSGRLICDIANEMGQSLTPKCQSWDLSEMYQVTCEKEHKPLDIDYQNPQYQNDVNSMTMALQENITNCMISAEVSYRIQLLTLTKQLTNLAGNAWAQTLGGTRAGRNEYILLHEFSRNGFIVPDKEGNRSRAQKQRQNEENADAPVNSKKAKYQGGLVFEPEKGLHKNYVLVMDFNSLYPSIIQEFNICFTTVDRNKEDIDELPSVPPSEVDQGVLPRLLANLVDRRREVKKVMKTETDPHKRVQCDIRQQALKLTANSMYGCLGYVNSRFYAKPLAMLVTNKGREILMNTRQLAESMNLLVVYGDTDSVMIDTGCDNYADAIKIGLGFKRLVNERYRLLEIDIDNVFKKLLLHAKKKYAALTVNLDKNGNGTTVLEVKGLDMKRREFCPLSRDVSIHVLNTILSDKDPEEALQEVYDYLEDIRIKVETNNIRIDKYKINMKLSKDPKAYPGGKNMPAVQVALRMRKAGRVVKAGSVITFVITKQDEIDNAADTPALSVAERAHALNEVMIKSNNLIPDPQYYLEKQIFAPVERLLERIDSFNVVRLSEALGLDSKKYFRREGGNNNGEDINNLQPLETTITDVERFKDTVTLELSCPSCDKRFPFGGIVSSNYYRVSYNGLQCKHCEQLFTPLQLTSQIEHSIRAHISLYYAGWLQCDDSTCGIVTRQVSVFGKRCLNDGCTGVMRYKYSDKQLYNQLLYFDSLFDCEKNKKQELKPIYLPDDLDYPKEQLTESSIKALTEQNRELMETGRSVVQKYLNDCGRRYVDMTSIFDFMLN

binding [3]: binds
B3: Y-Pol1 (protein, UniProt P13382 1-1468)
chain: B2 chain

binding [4]: binds
B4: Pol1-1A (T402A), full length (yeast two-hybrid) (protein, UniProt P13382 1-1468)
chain: B2 chain with T402A

binding [5]: binds
binding [1]: binds
binding [4]: binds
B5: Wild type full length Pol1 (yeast two-hybrid) (protein, UniProt P13382 1-1468)
chain: B2 chain

Source: publication PMC10521137
